Drawing on patent publication US20210147526A1, this text covers binding for 1 molecule.

Chains of the proteins cited; added tags and fusions are not shown. Lines headed by an entry give the natural chain unless they say otherwise; changes in a name come on top.
UniProt Q61738: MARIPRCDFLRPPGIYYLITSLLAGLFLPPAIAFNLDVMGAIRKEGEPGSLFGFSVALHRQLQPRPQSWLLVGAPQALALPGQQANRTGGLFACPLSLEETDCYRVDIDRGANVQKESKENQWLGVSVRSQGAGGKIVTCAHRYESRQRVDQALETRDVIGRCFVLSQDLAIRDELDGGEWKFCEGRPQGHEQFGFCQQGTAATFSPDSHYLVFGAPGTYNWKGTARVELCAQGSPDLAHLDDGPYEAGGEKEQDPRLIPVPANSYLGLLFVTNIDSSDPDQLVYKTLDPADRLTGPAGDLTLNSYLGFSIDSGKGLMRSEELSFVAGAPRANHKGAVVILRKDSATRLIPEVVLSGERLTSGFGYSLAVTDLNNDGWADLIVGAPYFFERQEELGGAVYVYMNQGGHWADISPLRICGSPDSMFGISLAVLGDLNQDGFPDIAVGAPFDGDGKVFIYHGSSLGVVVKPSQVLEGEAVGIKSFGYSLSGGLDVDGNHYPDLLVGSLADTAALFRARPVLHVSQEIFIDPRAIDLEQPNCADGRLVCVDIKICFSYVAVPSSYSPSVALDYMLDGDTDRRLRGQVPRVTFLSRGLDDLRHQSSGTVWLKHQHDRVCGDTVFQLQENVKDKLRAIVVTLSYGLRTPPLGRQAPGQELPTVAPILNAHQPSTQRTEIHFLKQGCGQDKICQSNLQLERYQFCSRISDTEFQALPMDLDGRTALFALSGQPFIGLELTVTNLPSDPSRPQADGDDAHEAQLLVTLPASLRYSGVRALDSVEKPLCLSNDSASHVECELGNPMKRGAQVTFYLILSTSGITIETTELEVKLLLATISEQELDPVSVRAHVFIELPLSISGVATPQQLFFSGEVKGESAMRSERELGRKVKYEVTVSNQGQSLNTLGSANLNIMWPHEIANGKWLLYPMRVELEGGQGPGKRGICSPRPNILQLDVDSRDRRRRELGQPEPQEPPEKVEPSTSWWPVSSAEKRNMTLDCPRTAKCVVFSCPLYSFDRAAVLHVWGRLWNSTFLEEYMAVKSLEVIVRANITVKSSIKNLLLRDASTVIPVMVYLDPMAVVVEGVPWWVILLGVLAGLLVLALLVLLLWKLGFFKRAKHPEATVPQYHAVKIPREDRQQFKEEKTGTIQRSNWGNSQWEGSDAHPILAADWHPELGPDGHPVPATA
UniProt P09055: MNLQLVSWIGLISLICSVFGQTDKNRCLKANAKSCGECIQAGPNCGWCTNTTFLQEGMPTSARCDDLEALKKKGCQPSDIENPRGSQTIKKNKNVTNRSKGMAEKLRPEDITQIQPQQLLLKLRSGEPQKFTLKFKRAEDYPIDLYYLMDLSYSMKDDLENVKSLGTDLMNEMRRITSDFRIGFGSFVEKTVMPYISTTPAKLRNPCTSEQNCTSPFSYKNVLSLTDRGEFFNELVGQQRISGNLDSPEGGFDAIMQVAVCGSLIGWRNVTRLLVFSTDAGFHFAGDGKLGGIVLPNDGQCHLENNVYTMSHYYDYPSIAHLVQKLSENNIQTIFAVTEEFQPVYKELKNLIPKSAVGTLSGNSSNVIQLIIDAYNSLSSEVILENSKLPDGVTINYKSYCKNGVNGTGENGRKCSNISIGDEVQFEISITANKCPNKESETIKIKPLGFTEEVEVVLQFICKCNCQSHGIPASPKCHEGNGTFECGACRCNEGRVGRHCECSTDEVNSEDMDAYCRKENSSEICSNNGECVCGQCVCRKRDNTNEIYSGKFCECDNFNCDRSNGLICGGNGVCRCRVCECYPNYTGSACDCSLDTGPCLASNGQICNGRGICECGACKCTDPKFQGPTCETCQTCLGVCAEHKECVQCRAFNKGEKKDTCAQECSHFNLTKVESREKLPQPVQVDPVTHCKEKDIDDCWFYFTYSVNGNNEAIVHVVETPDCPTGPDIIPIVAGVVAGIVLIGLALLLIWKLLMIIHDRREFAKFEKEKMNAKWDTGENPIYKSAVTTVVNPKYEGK
UniProt Q13683: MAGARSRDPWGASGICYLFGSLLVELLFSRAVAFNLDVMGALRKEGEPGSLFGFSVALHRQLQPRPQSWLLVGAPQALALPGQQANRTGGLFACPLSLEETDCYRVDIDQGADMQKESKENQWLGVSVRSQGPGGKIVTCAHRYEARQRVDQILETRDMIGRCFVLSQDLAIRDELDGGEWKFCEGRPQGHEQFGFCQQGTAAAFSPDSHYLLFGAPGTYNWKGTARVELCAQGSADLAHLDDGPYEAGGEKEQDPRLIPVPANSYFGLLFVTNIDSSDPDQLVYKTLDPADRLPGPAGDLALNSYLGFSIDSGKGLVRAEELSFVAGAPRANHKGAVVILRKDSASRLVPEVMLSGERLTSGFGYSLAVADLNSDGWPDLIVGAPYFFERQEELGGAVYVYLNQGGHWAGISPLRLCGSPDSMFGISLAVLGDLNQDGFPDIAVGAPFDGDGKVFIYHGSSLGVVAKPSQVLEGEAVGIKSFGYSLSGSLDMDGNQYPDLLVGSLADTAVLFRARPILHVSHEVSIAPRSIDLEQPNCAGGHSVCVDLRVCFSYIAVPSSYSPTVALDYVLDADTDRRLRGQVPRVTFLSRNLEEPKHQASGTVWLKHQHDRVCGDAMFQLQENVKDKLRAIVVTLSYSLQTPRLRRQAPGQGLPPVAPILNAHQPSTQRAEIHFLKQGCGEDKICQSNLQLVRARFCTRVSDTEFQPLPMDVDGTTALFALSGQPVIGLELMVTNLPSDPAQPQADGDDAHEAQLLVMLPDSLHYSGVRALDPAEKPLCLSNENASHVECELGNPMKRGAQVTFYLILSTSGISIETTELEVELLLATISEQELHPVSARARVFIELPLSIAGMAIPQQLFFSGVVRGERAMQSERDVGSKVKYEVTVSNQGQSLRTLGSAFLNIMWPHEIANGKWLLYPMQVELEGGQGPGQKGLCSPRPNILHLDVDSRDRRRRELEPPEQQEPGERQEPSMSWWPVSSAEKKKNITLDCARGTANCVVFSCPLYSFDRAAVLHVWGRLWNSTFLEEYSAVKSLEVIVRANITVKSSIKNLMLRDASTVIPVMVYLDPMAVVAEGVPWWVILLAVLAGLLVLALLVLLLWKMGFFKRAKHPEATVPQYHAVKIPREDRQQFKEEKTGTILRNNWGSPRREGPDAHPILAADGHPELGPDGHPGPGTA
UniProt P05556: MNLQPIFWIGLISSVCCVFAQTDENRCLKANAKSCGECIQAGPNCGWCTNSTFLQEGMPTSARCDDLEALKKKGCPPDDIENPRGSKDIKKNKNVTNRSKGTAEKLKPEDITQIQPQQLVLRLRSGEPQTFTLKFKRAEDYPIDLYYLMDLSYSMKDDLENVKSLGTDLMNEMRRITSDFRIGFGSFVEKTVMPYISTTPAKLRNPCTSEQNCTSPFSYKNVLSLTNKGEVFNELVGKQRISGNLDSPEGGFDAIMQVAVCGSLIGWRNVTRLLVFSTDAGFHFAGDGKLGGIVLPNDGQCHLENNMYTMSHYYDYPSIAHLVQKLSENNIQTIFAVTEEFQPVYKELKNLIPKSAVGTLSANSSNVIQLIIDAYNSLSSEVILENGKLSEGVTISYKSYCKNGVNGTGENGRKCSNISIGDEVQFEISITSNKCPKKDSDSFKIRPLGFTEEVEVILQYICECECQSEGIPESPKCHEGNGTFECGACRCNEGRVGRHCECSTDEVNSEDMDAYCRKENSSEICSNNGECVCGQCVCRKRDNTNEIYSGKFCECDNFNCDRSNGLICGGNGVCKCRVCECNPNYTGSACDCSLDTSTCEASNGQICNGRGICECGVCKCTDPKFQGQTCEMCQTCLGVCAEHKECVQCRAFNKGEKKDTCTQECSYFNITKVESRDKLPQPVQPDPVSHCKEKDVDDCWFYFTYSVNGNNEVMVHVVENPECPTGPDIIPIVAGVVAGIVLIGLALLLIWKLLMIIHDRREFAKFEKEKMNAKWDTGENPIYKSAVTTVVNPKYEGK

These are yes or no findings as the source states them, for the method shown. Some entries that bind do so weakly or less than the wild type.

Assay [1] addresses Mouse Integrin α7β1 (mouse) (UniProt Q61738+P09055). Description: binding kinetics, Example 4.
Assay [2] has as its target Human Integrin α7β1 (human) (UniProt Q13683+P05556). Description: binding kinetics, Example 4.

B1: VL3VHK20TFT monoclonal antibody (antibody, human IgG4 S228P, kappa, V domains shown)
VH: QVQLVQSGAEVKKPGASVKVSCKASGYTFTKYWINWVRQAPGQGLEWMGIIYPGSSTSNYNEKFKTRVTMTVDTSTSTAYMELSSLRSEDTAVYYCVKNDNWGQGTLVTVSS
VL: DIQMTQSPSSLSASVGDRVTITCRASESVDNYGISFMNWFQQKPGKAPKLLIYAASDLGSGVPSRFSGSGSGTDFTLTISSLQPEDFATYYCHQSKEVPYTFGQGTKLEIKR
Consider B1, for which the binding entry in assay [1] and in assay [2] was “binds” each time.
